# In article PMC8384837:
# Where a chain is given by its changes, count along the chain named. The list shows a part of the results. For some of these results: At the low end of the ranking the order means little.
# Experiments:
# Settings in all cases: yeast three-hybrid, YBZ-1, SC-Leu-His + 0.5 mM 3-AT, 4 days
# [1] = target: T1, PUM1 PUF domain R4-DYA N971D + H972Y + Q975A (UniProt Q14671)
# T1 sequence: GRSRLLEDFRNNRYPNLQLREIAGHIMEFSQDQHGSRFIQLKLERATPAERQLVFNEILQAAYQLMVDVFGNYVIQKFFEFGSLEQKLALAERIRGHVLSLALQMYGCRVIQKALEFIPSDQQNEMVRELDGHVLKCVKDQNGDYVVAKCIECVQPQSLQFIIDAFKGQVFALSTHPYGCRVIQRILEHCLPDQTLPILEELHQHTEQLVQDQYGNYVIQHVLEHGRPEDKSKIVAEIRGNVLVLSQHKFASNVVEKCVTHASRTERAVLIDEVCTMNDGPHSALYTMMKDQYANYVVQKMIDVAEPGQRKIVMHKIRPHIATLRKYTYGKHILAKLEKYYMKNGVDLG
# [2] = target: T2, PUM1 PUF domain R4-DYG N971D + H972Y + Q975G (UniProt Q14671)
# T2 sequence: T1 sequence with A148G
# [3] = target: T3, PUM1 PUF domain R4-DYN N971D + H972Y + Q975N (UniProt Q14671)
# T3 sequence: T1 sequence with A148N
# [4] = target: T4, PUM1 PUF domain R4-DYR N971D + H972Y + Q975R (UniProt Q14671)
# T4 sequence: T1 sequence with A148R
# [5] = target: T5, PUM1 PUF domain R4-DYV N971D + H972Y + Q975V (UniProt Q14671)
# T5 sequence: T1 sequence with A148V
# [6] = target: T6, PUM1 PUF domain R4-EFD N971E + H972F + Q975D (UniProt Q14671)
# T6 sequence: T1 sequence with D144E, Y145F, A148D
# [7] = target: T7, PUM1 PUF domain R4-EFG N971E + H972F + Q975G (UniProt Q14671)
# T7 sequence: T1 sequence with D144E, Y145F, A148G
# [8] = target: T8, PUM1 PUF domain R4-EHD N971E + Q975D (UniProt Q14671)
# T8 sequence: T1 sequence with D144E, Y145H, A148D
# [9] = target: T9, PUM1 PUF domain R4-EHG N971E + Q975G (UniProt Q14671)
# T9 sequence: T1 sequence with D144E, Y145H, A148G
# [10] = target: T10, PUM1 PUF domain R4-EPG N971E + H972P + Q975G (UniProt Q14671)
# T10 sequence: T1 sequence with D144E, Y145P, A148G
# [11] = target: T11, PUM1 PUF domain R4-EPR N971E + H972P + Q975R (UniProt Q14671)
# T11 sequence: T1 sequence with D144E, Y145P, A148R
# [12] = target: T12, PUM1 PUF domain R4-EPS N971E + H972P + Q975S (UniProt Q14671)
# T12 sequence: T1 sequence with D144E, Y145P, A148S
# [13] = target: T13, PUM1 PUF domain R4-ERC N971E + H972R + Q975C (UniProt Q14671)
# T13 sequence: T1 sequence with D144E, Y145R, A148C
# [14] = target: T14, PUM1 PUF domain R4-ERQ N971E + H972R (UniProt Q14671)
# T14 sequence: T1 sequence with D144E, Y145R, A148Q
# [15] = target: T15, PUM1 PUF domain R4-EYG N971E + H972Y + Q975G (UniProt Q14671)
# T15 sequence: T1 sequence with D144E, A148G
# [16] = target: T16, PUM1 PUF domain R4-EYI N971E + H972Y + Q975I (UniProt Q14671)
# T16 sequence: T1 sequence with D144E, A148I
# [17] = target: T17, PUM1 PUF domain R4-EYM N971E + H972Y + Q975M (UniProt Q14671)
# T17 sequence: T1 sequence with D144E, A148M
# [18] = target: T18, PUM1 PUF domain R4-EYR N971E + H972Y + Q975R (UniProt Q14671)
# T18 sequence: T1 sequence with D144E, A148R
# [19] = target: T19, PUM1 PUF domain R4-FAA N971F + H972A + Q975A (Homo sapiens) (UniProt Q14671)
# T19 sequence: T1 sequence with D144F, Y145A
# [20] = target: T20, PUM1 PUF domain R4-FGC N971F + H972G + Q975C (UniProt Q14671)
# T20 sequence: T1 sequence with D144F, Y145G, A148C
# [21] = target: T21, PUM1 PUF domain R4-FGQ N971F + H972G (UniProt Q14671)
# T21 sequence: T1 sequence with D144F, Y145G, A148Q
# [22] = target: T22, PUM1 PUF domain R4-FGR N971F + H972G + Q975R (UniProt Q14671)
# T22 sequence: T1 sequence with D144F, Y145G, A148R
# [23] = target: T23, PUM1 PUF domain R4-FGS N971F + H972G + Q975S (UniProt Q14671)
# T23 sequence: T1 sequence with D144F, Y145G, A148S
# [24] = target: T24, PUM1 PUF domain R4-FNA N971F + H972N + Q975A (UniProt Q14671)
# T24 sequence: T1 sequence with D144F, Y145N
# [25] = target: T25, PUM1 PUF domain R4-FNC N971F + H972N + Q975C (UniProt Q14671)
# T25 sequence: T1 sequence with D144F, Y145N, A148C
# [26] = target: T26, PUM1 PUF domain R4-FNL N971F + H972N + Q975L (UniProt Q14671)
# T26 sequence: T1 sequence with D144F, Y145N, A148L
# [27] = target: T27, PUM1 PUF domain R4-FNM N971F + H972N + Q975M (UniProt Q14671)
# T27 sequence: T1 sequence with D144F, Y145N, A148M
# [28] = target: T28, PUM1 PUF domain R4-GCC N971G + H972C + Q975C (UniProt Q14671)
# T28 sequence: T1 sequence with D144G, Y145C, A148C
# [29] = target: T29, PUM1 PUF domain R4-GCG N971G + H972C + Q975G (Homo sapiens) (UniProt Q14671)
# T29 sequence: T1 sequence with D144G, Y145C, A148G
# [30] = target: T30, PUM1 PUF domain R4-GFW N971G + H972F + Q975W (UniProt Q14671)
# T30 sequence: T1 sequence with D144G, Y145F, A148W
# [31] = target: T31, PUM1 PUF domain R4-GHP N971G + Q975P (UniProt Q14671)
# T31 sequence: T1 sequence with D144G, Y145H, A148P
# [32] = target: T32, PUM1 PUF domain R4-GMC N971G + H972M + Q975C (UniProt Q14671)
# T32 sequence: T1 sequence with D144G, Y145M, A148C
# [33] = target: T33, PUM1 PUF domain R4-GMG N971G + H972M + Q975G (UniProt Q14671)
# T33 sequence: T1 sequence with D144G, Y145M, A148G
# [34] = target: T34, PUM1 PUF domain R4-GNC N971G + H972N + Q975C (UniProt Q14671)
# T34 sequence: T1 sequence with D144G, Y145N, A148C
# [35] = target: T35, PUM1 PUF domain R4-GNG N971G + H972N + Q975G (UniProt Q14671)
# T35 sequence: T1 sequence with D144G, Y145N, A148G
# [36] = target: T36, PUM1 PUF domain R4-GNL N971G + H972N + Q975L (UniProt Q14671)
# T36 sequence: T1 sequence with D144G, Y145N, A148L
# [37] = target: T37, PUM1 PUF domain R4-GNR N971G + H972N + Q975R (UniProt Q14671)
# T37 sequence: T1 sequence with D144G, Y145N, A148R
# [38] = target: T38, PUM1 PUF domain R4-GNS N971G + H972N + Q975S (UniProt Q14671)
# T38 sequence: T1 sequence with D144G, Y145N, A148S
# [39] = target: T39, PUM1 PUF domain R4-GNT N971G + H972N + Q975T (UniProt Q14671)
# T39 sequence: T1 sequence with D144G, Y145N, A148T
# [40] = target: T40, PUM1 PUF domain R4-GNV N971G + H972N + Q975V (UniProt Q14671)
# T40 sequence: T1 sequence with D144G, Y145N, A148V
sequence,measurement,setting,value
GGCUAGAACUAGUGGAUCCCCCGGCGCCCGGCGGCUCGAGCCCGGGUAAGUGUAGAUAGUCUGCAUGCCGCCGGGCGCCAUGCCUGCAGGUCGACUCUAGAAAACAUG,binding signal (log2 enrichment (interaction score)),[1],< -5.33
same,binding signal (log2 enrichment (interaction score)),[2],< -6.77
same,binding signal (log2 enrichment (interaction score)),[3],< -5.75
same,binding signal (log2 enrichment (interaction score)),[4],< -5.64
same,binding signal (log2 enrichment (interaction score)),[5],< -7.03
same,binding signal (log2 enrichment (interaction score)),[6],< -6.96
same,binding signal (log2 enrichment (interaction score)),[7],< -7.34
same,binding signal (log2 enrichment (interaction score)),[8],< -6.13
same,binding signal (log2 enrichment (interaction score)),[9],< -6.43
same,binding signal (log2 enrichment (interaction score)),[10],< -6.53
same,binding signal (log2 enrichment (interaction score)),[11],< -5.48
same,binding signal (log2 enrichment (interaction score)),[12],< -8.59
same,binding signal (log2 enrichment (interaction score)),[13],< -5.31
same,binding signal (log2 enrichment (interaction score)),[14],< -5.85
same,binding signal (log2 enrichment (interaction score)),[15],< -7.89
same,binding signal (log2 enrichment (interaction score)),[16],< -6.59
same,binding signal (log2 enrichment (interaction score)),[17],< -5.31
same,binding signal (log2 enrichment (interaction score)),[18],< -5.73
same,binding signal (log2 enrichment (interaction score)),[19],< -5.27
same,binding signal (log2 enrichment (interaction score)),[20],< -7.91
same,binding signal (log2 enrichment (interaction score)),[21],< -5.38
same,binding signal (log2 enrichment (interaction score)),[22],< -7.91
same,binding signal (log2 enrichment (interaction score)),[23],< -7.32
same,binding signal (log2 enrichment (interaction score)),[24],< -6.27
same,binding signal (log2 enrichment (interaction score)),[25],< -5.16
same,binding signal (log2 enrichment (interaction score)),[26],< -5.61
same,binding signal (log2 enrichment (interaction score)),[27],< -4.74
same,binding signal (log2 enrichment (interaction score)),[28],< -6.95
same,binding signal (log2 enrichment (interaction score)),[29],-2.28
same,binding signal (log2 enrichment (interaction score)),[30],< -4.94
same,binding signal (log2 enrichment (interaction score)),[31],< -6.35
same,binding signal (log2 enrichment (interaction score)),[32],< -6.63
same,binding signal (log2 enrichment (interaction score)),[33],-5.05
same,binding signal (log2 enrichment (interaction score)),[34],< -6.31
same,binding signal (log2 enrichment (interaction score)),[35],< -6.31
same,binding signal (log2 enrichment (interaction score)),[36],< -7.37
same,binding signal (log2 enrichment (interaction score)),[37],< -7.46
same,binding signal (log2 enrichment (interaction score)),[38],< -5.97
same,binding signal (log2 enrichment (interaction score)),[39],< -7.3
same,binding signal (log2 enrichment (interaction score)),[40],< -7.81

# Eight entries from above, tab-delimited:
sequence	measurement	setting	value
GGCUAGAACUAGUGGAUCCCCCGGCGCCCGGCGGCUCGAGCCCGGGUAAGUGUAGAUAGUCUGCAUGCCGCCGGGCGCCAUGCCUGCAGGUCGACUCUAGAAAACAUG	binding signal (log2 enrichment (interaction score))	[27]	< -4.74
same	binding signal (log2 enrichment (interaction score))	[28]	< -6.95
same	binding signal (log2 enrichment (interaction score))	[29]	-2.28
same	binding signal (log2 enrichment (interaction score))	[30]	< -4.94
same	binding signal (log2 enrichment (interaction score))	[31]	< -6.35
same	binding signal (log2 enrichment (interaction score))	[32]	< -6.63
same	binding signal (log2 enrichment (interaction score))	[33]	-5.05
same	binding signal (log2 enrichment (interaction score))	[34]	< -6.31
